Assay results taken from the supplement of paper PMC10849652.
Some of the results follow.

Sequences of proteins named here, by UniProt entry; tags and fusion partners are left off. A change or cut given only in a name is not applied to a line headed by its entry.
UniProt Q9BRV3: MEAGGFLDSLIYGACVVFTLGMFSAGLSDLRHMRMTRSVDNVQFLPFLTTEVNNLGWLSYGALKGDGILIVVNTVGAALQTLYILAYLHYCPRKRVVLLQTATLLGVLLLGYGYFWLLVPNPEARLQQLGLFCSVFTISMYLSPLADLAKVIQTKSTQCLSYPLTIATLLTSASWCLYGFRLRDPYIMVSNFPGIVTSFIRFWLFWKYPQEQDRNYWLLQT
UniProt Q3KQZ1: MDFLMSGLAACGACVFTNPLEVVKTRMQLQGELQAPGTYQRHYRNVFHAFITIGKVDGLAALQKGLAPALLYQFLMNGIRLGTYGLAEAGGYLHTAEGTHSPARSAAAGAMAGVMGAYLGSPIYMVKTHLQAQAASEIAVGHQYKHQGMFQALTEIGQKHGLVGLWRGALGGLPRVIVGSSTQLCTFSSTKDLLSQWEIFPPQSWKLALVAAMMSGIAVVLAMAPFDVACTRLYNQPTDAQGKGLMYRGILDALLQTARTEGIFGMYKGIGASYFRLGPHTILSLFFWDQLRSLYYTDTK
UniProt F5GZS6: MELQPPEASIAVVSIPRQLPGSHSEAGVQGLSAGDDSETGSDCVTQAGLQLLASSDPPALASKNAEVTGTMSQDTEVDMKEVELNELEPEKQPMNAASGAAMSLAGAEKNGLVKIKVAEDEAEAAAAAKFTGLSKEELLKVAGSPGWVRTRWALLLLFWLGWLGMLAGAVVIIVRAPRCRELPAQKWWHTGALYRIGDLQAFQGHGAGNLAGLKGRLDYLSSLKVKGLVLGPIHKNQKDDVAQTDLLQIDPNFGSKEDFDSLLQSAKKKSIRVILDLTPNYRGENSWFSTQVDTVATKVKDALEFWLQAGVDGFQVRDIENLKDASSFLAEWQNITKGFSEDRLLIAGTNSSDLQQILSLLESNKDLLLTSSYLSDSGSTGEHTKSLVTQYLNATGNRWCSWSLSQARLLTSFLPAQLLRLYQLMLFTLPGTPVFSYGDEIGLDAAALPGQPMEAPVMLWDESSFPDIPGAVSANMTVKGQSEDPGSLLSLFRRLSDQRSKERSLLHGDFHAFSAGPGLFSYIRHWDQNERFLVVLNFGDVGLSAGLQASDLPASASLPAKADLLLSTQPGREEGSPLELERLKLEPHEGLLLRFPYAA
UniProt O15431: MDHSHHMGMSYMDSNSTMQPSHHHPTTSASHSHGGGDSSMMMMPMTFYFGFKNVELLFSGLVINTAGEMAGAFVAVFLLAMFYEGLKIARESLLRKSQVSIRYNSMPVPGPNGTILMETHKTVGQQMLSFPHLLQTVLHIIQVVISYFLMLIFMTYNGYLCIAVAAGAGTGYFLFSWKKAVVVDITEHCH
UniProt P50443: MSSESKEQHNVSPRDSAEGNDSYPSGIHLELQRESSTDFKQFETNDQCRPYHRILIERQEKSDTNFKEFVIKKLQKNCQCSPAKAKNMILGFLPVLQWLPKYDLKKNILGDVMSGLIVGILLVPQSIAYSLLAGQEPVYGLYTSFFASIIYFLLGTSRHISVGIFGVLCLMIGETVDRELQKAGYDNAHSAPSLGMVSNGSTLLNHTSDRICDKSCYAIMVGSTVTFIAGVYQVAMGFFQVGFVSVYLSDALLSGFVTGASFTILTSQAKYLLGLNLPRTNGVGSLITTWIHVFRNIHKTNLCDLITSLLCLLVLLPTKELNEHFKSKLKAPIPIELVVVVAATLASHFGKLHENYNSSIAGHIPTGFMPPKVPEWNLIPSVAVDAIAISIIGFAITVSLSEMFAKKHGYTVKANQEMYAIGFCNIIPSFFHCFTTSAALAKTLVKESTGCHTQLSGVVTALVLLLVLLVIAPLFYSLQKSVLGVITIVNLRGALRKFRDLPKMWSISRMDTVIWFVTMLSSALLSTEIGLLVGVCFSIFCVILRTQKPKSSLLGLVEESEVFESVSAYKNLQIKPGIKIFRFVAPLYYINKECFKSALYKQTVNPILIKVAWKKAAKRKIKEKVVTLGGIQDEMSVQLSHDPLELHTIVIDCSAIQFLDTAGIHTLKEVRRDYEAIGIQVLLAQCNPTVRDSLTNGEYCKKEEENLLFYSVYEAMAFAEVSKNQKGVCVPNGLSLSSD
UniProt O76082: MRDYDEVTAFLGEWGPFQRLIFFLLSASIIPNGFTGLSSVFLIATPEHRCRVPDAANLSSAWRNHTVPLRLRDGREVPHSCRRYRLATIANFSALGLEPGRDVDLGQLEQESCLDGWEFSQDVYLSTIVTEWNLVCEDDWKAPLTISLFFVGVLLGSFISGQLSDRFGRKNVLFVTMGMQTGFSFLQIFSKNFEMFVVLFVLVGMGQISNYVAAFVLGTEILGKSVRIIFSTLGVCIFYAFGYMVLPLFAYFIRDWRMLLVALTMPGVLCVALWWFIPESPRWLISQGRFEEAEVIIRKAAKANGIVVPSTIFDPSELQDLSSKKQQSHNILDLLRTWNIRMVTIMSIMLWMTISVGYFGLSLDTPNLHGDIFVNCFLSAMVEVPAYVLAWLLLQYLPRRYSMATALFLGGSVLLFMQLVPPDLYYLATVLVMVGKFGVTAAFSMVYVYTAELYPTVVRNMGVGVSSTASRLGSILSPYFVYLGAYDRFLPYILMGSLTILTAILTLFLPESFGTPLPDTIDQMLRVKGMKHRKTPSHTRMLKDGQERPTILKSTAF
UniProt Q96A29: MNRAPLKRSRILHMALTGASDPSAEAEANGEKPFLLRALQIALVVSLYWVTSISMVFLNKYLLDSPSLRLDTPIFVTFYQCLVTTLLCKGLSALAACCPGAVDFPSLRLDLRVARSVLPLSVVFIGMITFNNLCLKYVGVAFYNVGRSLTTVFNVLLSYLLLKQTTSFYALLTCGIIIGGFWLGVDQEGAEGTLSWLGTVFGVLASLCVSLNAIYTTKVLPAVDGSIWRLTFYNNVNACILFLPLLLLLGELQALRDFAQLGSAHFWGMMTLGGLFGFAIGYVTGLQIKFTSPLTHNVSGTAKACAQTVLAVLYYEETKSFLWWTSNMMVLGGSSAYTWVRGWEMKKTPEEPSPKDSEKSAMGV
UniProt Q8N8R3: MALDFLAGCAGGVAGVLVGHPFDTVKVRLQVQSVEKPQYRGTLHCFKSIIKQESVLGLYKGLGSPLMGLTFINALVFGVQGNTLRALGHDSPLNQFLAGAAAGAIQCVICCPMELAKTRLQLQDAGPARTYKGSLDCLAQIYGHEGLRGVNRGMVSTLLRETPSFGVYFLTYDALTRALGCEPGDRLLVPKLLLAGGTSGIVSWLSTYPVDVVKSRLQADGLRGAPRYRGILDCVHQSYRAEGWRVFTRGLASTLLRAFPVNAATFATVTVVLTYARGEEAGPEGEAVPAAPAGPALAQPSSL
UniProt Q7Z769: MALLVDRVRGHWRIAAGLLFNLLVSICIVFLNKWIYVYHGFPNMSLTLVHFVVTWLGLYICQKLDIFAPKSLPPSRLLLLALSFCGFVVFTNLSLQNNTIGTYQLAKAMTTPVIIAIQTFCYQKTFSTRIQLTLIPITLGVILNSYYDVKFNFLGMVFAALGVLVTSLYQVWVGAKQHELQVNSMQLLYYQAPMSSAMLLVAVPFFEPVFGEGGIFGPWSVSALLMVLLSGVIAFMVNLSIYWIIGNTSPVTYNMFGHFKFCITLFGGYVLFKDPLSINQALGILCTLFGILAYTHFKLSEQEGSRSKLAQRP
UniProt Q9C0K1: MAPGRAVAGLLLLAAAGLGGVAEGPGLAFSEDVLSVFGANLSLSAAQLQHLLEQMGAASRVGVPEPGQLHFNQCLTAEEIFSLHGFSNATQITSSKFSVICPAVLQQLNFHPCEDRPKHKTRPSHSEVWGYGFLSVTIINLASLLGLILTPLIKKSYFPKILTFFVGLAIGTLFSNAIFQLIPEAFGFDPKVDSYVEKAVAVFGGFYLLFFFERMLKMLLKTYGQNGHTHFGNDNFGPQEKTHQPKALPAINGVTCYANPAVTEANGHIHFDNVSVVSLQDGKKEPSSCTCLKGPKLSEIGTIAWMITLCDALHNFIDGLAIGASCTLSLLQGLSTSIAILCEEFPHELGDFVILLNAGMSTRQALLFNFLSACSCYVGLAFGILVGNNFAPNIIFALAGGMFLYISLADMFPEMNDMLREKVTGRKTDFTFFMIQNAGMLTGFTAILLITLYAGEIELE
UniProt Q9BRY0: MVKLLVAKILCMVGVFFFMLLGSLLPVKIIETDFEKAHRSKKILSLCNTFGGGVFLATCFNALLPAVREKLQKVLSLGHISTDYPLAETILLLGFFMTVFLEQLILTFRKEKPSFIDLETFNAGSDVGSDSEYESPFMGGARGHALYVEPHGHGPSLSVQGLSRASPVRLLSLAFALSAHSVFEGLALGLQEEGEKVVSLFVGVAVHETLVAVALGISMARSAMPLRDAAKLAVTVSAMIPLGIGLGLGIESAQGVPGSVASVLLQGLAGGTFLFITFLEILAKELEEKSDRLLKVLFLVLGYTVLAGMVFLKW
UniProt Q8N755: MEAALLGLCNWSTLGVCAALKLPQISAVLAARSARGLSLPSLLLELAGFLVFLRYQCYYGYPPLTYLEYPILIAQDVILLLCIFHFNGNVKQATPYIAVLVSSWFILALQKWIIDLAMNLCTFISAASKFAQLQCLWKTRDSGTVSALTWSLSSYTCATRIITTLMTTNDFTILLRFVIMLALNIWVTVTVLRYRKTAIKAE
UniProt Q9Y2P4: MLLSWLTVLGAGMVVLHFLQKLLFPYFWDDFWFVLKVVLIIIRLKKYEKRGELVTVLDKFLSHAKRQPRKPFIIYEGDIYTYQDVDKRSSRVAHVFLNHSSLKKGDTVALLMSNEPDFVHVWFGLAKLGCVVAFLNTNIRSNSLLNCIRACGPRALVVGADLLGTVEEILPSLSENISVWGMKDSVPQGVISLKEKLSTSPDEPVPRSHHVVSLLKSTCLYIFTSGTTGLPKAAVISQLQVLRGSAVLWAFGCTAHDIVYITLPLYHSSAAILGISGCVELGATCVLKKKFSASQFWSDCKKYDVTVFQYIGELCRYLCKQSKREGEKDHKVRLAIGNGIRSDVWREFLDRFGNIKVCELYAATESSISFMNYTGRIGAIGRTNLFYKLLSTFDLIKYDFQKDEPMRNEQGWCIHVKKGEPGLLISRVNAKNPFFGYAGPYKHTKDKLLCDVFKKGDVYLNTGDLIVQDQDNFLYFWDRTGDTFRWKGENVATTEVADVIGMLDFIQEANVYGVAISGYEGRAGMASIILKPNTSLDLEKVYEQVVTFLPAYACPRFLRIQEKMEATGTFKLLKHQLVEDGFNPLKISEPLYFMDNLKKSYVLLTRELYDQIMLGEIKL
UniProt Q96NT5: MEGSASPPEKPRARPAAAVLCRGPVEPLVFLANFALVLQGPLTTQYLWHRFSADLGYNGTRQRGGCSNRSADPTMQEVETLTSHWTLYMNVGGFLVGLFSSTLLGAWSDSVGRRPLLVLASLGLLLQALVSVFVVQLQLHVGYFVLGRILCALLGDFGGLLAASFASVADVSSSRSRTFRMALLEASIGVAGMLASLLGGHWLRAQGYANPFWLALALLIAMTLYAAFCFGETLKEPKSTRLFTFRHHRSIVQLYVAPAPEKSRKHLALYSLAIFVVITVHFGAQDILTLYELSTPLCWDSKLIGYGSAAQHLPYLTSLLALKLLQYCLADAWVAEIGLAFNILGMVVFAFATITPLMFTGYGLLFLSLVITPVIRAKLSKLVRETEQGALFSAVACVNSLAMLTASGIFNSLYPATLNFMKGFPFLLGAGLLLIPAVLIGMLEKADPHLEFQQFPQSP
UniProt Q695T7: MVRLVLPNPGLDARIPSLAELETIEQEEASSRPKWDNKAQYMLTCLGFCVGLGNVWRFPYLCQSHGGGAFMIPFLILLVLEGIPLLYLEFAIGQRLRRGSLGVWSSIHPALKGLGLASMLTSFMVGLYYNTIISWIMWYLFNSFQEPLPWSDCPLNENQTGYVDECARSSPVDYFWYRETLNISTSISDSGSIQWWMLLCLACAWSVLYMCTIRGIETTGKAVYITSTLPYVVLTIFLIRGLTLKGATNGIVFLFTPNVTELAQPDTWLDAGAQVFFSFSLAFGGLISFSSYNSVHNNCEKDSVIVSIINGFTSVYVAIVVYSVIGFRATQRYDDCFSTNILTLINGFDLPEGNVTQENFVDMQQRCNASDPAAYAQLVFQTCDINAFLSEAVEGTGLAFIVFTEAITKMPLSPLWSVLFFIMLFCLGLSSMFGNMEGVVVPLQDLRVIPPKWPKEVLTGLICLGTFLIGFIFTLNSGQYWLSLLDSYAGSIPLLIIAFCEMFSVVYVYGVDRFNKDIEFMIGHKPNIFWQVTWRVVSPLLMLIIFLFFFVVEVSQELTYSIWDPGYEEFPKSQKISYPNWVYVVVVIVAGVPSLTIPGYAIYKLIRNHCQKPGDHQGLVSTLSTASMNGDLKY
UniProt Q9NY26: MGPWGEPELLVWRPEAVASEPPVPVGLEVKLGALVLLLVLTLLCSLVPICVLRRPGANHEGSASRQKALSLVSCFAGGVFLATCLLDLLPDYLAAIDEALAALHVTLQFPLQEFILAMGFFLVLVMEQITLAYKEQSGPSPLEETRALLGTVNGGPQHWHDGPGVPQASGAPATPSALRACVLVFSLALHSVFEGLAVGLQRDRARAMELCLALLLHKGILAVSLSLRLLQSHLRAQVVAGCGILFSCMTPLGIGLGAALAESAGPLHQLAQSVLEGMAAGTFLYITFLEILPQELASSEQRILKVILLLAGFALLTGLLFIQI

Compound: COC1=CC=C(C=C1)CN2C=CC3=C2C=C(C=C3)C(=O)NO
Assay: log2 fold change, soluble protein after heating vs DMSO (PISA); higher = thermal stabilisation; K562 cells, 10 uM, 30 min; active = over 0.2 and 3.5 SD of the protein, either way, in both replicates (recomputed)
Outline: (§1)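 K562 cells (2×10^6 cells/mL) were treated with 10 μM compound for 30 min, and aliquots were heated for 3 min over 48°C-58°C. Pooled aliquots were extracted in PBS with 0.5% NP-40 at 4°C, and the supernatant after 21,000xg for 90 min was measured by TMTpro 16plex LC-MS/MS with channel sums equalised. Reported thermal stability, relative to control samples and from duplicates, is a log2 fold change.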

log2 fold change, inactive:
SLC50A1 (UniProt Q9BRV3) -0.104
SLC22A23 (UniProt A1A5C7) -0.037
SLC25A35 (UniProt Q3KQZ1) -0.207
SLC3A2 (UniProt F5GZS6) -0.085
SLC31A1 (UniProt O15431) -0.004
SLC35C2 isoform 3 (UniProt Q9NQQ7) -0.103
SLC26A2 (UniProt P50443) -0.04
SLC22A5 isoform 3 (UniProt O76082) 0.105
SLC35C1 (UniProt Q96A29) 0.001
SLC36A1 (UniProt Q7Z2H8) 0.094
SLC25A29 (UniProt Q8N8R3) -0.022
SLC35E1 (UniProt Q96K37) -0.49

Compound: CON(C)C(=O)N1N=C(c2cc(F)ccc2F)S[C@@]1(CCCN)c1ccccc1 [filanesib]
Assay: as above
Outline: as §1

log2 fold change, inactive:
SLC3A2 (UniProt F5H867) 0.171
SLC35F6 (UniProt Q8N357) -0.001
SLC35E3 (UniProt Q7Z769) -0.308
SLC39A8 (UniProt Q9C0K1) -0.117
SLC39A3 (UniProt Q9BRY0) -0.115
SLC66A3 (UniProt Q8N755) 0.025
SLC25A28 (UniProt Q96A46) -0.101
SLC43A3 (UniProt Q8NBI5) 0.269
SLC2A13 (UniProt Q96QE2) -0.055
SLC2A4 (UniProt P14672) 0

Compound: CO[C@H]1C[C@@H]2CC[C@@H](C)[C@@](O)(O2)C(=O)C(=O)N2CCCC[C@H]2C(=O)O[C@H]([C@H](C)C[C@@H]2CC[C@H](n3cnnn3)[C@H](OC)C2)CC(=O)[C@H](C)/C=C(\C)[C@@H](O)[C@@H](OC)C(=O)[C@H](C)C[C@H](C)/C=C/C=C/C=C/1C [zotarolimus]
Assay: as above
Outline: as §1

log2 fold change, inactive:
SLC27A6 (UniProt Q9Y2P4) -0.02
SLC35F6 (UniProt Q8N357) 0.016
SLC35D1 (UniProt Q9NTN3) 0.051
SLC22A23 (UniProt A1A5C7) 0.178
SLC46A1 (UniProt Q96NT5) -0.095
SLC22A4 (UniProt Q9H015) -0.037
SLC25A35 (UniProt Q3KQZ1) 0.006
SLC39A8 (UniProt Q9C0K1) -0.018
SLC35A5 (UniProt Q9BS91) -0.031
SLC6A19 (UniProt Q695T7) -0.059
SLC31A1 (UniProt O15431) -0.089
SLC39A3 (UniProt Q9BRY0) -0.152
SLC35C2 isoform 3 (UniProt Q9NQQ7) -0.014
SLC35C1 (UniProt Q96A29) -0.056
SLC39A9 (UniProt Q9NUM3) 0.1
SLC2A13 (UniProt Q96QE2) -0.01
SLC39A1 (UniProt Q9NY26) -0.15
SLC35E1 (UniProt Q96K37) -0.011
SLC2A4 (UniProt P14672) -0.053
SLC1A3 (UniProt P43003) -0.097
